Source: patent US20220153852A1 (IBIO, published 2022)
Residue numbers refer to the chain shown, from its start. Results are given in words; binding and its absence hold for the method and conditions named. Some entries that bind do so weakly or less than the wild type.

By UniProt entry, the sequences of proteins in these tests, tags left out. Where a name states a change or a piece, a line headed by the entry shows the natural chain unless it says otherwise. Chains listed by the source or under a name are the forms on record and can include a tag or linker.
recombinant cynomolgus monkey (cyno) CD25 (H6WS54, form named): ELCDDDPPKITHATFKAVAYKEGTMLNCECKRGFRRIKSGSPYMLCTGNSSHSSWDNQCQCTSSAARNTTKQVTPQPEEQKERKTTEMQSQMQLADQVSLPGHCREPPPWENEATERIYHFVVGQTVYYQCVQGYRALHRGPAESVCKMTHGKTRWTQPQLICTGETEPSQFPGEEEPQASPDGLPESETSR

T1: human CD25 (ELISA antigen) (human, UniProt P01589 22-213, limits assumed)
T1 construct: The ELISA protocol is described only for cyno CD25; the human antigen's construct is not described
T1 sequence (looked up): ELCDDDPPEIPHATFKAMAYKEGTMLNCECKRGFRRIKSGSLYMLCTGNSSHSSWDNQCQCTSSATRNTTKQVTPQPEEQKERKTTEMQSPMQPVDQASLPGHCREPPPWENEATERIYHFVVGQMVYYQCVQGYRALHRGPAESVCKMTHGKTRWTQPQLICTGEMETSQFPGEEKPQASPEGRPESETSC

B1: hD11-H3-L2 (hD11-H3h-L2) (antibody, V domains shown)
VH: QVQLVQSGAEVKKPGASLKISCKGSGYTFTDYAMHWVRQAPGQGLEWIGVISTYSGDAIYAQKFQGRATMTVDTSTSTAYLELSSLRSEDTAVYYCARGVTFDYWGQGTTVTVSS
VL: DIQMTQSPSSLSASVGDRVTITCRASQDISNYLEWYQQKPGKAPKLLVYNAKTLAEGVPSRFSGSGSGTDFTLTISSLQPEDFGTYYCQHHYDTPYTFGQGTKLEIK
B2: hD11-H1-L2 (antibody, V domains shown)
VH: B1 VH with L18V, I20V, G24A, I48M, A68V, V72R, A79V, L81M
VL: B1 VL
notes: Humanized variant of D11 (parental clone carries human IgG1)

Legend:
Test in all cases: ELISA
[1] = molecular target: T1, human CD25 (ELISA antigen)
[2] = molecular target: recombinant cynomolgus monkey (cyno) CD25 (cynomolgus monkey) (UniProt H6WS54)
[3] = molecular target: human CD25 (ELISA antigen) (human) (UniProt P01589)

Row | Binder | binding [1] | binding [2] | binding [3]
1 | B1 | binds | binds | –
2 | B2 | – | binds | binds
